Data reported in patent publication US8455214B2, “Methods for determining chemotherapeutic agents targeting alpha-glucan pathways and uses thereof” (priority 2009, dated 2013).
Read-outs that look alike come from different tables or passages of the source. At least one read-out could not be matched to a standard name with certainty. For at least one compound, name, drawing or mass did not settle the structure.

Protein sequences, listed by entry. Tags and fused reporters are not part of them. Lines headed by an entry give the natural chain unless they say otherwise; changes in a name come on top.
UniProt P9WQ17: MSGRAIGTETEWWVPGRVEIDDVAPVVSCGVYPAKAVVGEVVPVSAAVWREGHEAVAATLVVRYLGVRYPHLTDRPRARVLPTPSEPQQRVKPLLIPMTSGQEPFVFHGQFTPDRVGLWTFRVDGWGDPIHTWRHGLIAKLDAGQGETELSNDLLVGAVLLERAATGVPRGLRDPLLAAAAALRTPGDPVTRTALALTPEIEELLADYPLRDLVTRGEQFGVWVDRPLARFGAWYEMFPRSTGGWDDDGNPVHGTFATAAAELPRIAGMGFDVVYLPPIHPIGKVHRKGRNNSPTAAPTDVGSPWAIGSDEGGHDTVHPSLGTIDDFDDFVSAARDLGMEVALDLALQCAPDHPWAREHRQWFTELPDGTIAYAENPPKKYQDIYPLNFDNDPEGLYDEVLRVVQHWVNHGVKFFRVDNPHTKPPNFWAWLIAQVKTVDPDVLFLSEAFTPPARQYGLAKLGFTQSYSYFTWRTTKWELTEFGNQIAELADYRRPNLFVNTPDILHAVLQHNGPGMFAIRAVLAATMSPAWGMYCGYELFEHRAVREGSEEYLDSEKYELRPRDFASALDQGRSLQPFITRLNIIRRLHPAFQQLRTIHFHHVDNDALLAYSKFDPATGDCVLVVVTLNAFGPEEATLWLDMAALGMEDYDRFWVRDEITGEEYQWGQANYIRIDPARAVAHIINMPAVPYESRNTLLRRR

Molecular target: Mtb GlgE (Mycobacterium tuberculosis, UniProt P9WQ17)
Format: biochemical

Compound: maltohexaose
- kcat^app/Km^app (acceptor maltohexaose with 1 mM M1P): 570 ± 110 M⁻¹ s⁻¹
- kcat^app/Km^app (acceptor maltohexaose with 5 mM M1P): 440 ± 100 M⁻¹ s⁻¹

Compound: O=P(O)(O)O[C@H]1O[C@H](CO)[C@@H](O[C@H]2O[C@H](CO)[C@@H](O)[C@H](O)[C@H]2O)[C@H](O)[C@H]1O [M1P, α-D-glucopyranosyl(1→4)-α-D-glucopyranosyl 1-phosphate]
- kcat^app/Km^app (donor M1P with 1 mM maltohexaose): 5,000±1,000 M^−1 s^−1
